{"source": "paper PMC9575046", "binders": {"B1": {"name": "Nerve injury-induced protein 1 (Ninjurin1) (protein, UniProt Q92982 1-152)", "chain": "MDSGTEEYELNGGLPPGTPGSPDASPARWGWRHGPINVNHYASKKSAAESMLDIALLMANASQLKAVVEQGPSFAFYVPLVVLISISLVLQIGVGVLLIFLVKYDLNNPAKHAKLDFLNNLATGLVFIIVVVNIFITAFGVQKPLMDMAPQQ"}}, "target": "tumour necrosis factor receptor 1 (human (endogenous in HepG2))", "experiment": "co-IP; WT HepG2 cell lysate (150 mM NaCl, 20 mM Tris-HCl pH 8.0, 10% glycerol, 0.3% Nonidet P-40) incubated with anti-TNFR1 antibody (sc-8436) at 4°C overnight, protein A/G PLUS-agarose beads; immunoblot with anti-TNFR1 and anti-Ninj1; NINJ1 KO HepG2 cells as control", "note": "No constants are given. Whether binding was seen depends on the method and setting. Binding seen in cells or lysates may run through a third protein. Binding calls can cover weak binding; strength is not graded here."}
{"binder": "B1", "values": [{"measurement": "binding", "value": "binds"}]}
